The nature of data set [1]: general procedure: Fmoc solid-phase peptide synthesis; Fmoc-Rink-MBHA resin, 0.66 mmol/g; HBTU, DIAE. Particulars: whole synthesis, scale of the general procedure 19.8 μmoles (30 mg resin), also 132 μmoles (200 mg resin).
Data set [2] is described as follows: general procedure: Fmoc solid-phase peptide synthesis; Fmoc-Rink-MBHA; HBTU, DIAE. The conditions noted are these: whole synthesis, scale 19.8 μmoles.

The results in this text go back to patent US8026219B2 (Universitat de Girona, priority 2006, dated 2011).

The same purity stands for every peptide and may come from a single statement. For part of these data: HELM strings list residues between dots; [ac] is acetyl, [am] amide, other brackets name non-standard units.

As to Ac-KKLFKKILKVL-NH2, the “crude HPLC purity” value in data set [1] is “over 90%”. Still for that read-out and setting: the value for “Bn-Lys-Lys-Leu-Phe-Lys-Lys-Ile-Leu-Lys-Val-Leu-NH2” was “over 90%”.

In the case of “PEPTIDE1{K.K.L.F.K.K.I.L.K.V.L.[am]}$$$$V2.0”, the “crude HPLC purity” value in data set [2] was “over 90%”.
